In paper PMC3823941:

T1: Myc-Smo (Smoothened, full-length) (Drosophila) (UniProt P91682)
T1 sequence: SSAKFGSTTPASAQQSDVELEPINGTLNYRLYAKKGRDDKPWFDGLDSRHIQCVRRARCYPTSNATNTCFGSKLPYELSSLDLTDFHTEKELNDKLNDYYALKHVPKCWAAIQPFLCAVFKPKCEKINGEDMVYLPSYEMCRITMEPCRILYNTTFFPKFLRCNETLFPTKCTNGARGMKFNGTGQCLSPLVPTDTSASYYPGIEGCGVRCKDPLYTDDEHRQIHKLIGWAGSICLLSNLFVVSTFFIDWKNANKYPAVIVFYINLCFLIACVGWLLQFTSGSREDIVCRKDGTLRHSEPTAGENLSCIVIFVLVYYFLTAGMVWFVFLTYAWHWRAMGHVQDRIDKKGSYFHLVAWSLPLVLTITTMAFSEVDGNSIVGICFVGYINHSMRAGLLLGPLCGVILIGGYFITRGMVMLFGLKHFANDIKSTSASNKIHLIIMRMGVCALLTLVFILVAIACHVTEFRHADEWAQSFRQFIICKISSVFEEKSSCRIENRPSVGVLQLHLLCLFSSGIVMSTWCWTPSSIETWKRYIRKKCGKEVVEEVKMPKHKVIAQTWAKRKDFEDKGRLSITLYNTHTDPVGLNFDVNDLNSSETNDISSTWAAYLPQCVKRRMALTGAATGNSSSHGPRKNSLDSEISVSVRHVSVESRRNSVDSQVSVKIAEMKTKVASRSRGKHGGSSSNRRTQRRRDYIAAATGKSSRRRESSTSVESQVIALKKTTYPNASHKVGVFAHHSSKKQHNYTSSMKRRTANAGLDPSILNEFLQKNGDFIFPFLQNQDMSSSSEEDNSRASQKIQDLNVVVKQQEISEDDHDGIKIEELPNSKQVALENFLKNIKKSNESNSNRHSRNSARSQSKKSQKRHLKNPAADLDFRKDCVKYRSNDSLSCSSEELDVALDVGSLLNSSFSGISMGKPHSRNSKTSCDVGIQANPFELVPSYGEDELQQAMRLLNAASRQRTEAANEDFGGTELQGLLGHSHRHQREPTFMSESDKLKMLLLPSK


Key:
Assay in all cases: co-IP; S2 cells co-transfected; lysis buffer 100 mM NaCl, 50 mM Tris.HCl pH8.0, 1.5 mM EDTA, 10% glycerol, 1% NP-40; immunoprecipitation with anti-Myc and protein A resin, western blot with anti-HA, anti-Hrs or anti-Flag; MG132 and NH4Cl to block Smo degradation; some samples with HhN-conditioned medium, USP8 overexpression or RNAi, Hrs overexpression or RNAi
[1] = target: T1, Myc-Smo (Smoothened, full-length) (Drosophila)
[2] = target: Smo transmembrane domain (Drosophila)
[3] = target: SmoCT truncation with amino acids 679–764 deleted (Drosophila)
[4] = target: Smo cytoplasmic tail (C-tail) (Drosophila)

Row | binding [1] | binding [2] | binding [3] | binding [4] | Molecule
1 | binds |  |  |  | Flag-USP8 (enzyme)
2 |  | no binding | no binding | binds | HA-Hrs (full-length Hrs) (protein, UniProt Q960X8 1-760) MFRSSFDKNLENATSHLRLEPDWPSILLICDEINQKDVTPKNAFAAIKKKMNSPNPHSSCYSLLVLESIVKNCGAPVHEEVFTKENCEMFSSFLESTPHENVRQKMLELVQTWAYAFRSSDKYQAIKDTMTILKAKGHTFPELREADAMFTADTAPNWADGRVCHRCRVEFTFTNRKHHCRNCGQVFCGQCTAKQCPLPKYGIEKEVRVCDGCFAALQRPTSGSGGAKSGPRPADSELPAEYLNSTLAQQVQTPARKTEQELKEEEELQLALALSQSEAEQQKPKLQSLPPAAYRMQQRSPSPEAPPEPKEYHQQPEEATNPELAKYLNRSYWEQRKISESSSMASPSAPSPMPPTPQPQQIMPLQVKSADEVQIDEFAANMRTQVEIFVNRMKSNSSRGRSISNDSSVQTLFMTLTSLHSQQLSYIKEMDDKRMWYEQLQDKLTQIKDSRAALDQLRQEHVEKLRRIAEEQERQRQMQMAQKLDIMRKKKQEYLQYQRQLALQRIQEQEREMQLRQEQQKAQYLMGQSAPPFPYMPPSAVPQHGSPSHQLNNVYNPYAAGVPGYLPQGPAPAPNGHGQFQAIPPGMYNPAIQQPMPPNLQPGGLMQQPAPPGNPQMMPPMPENQFANNPAAILQLPQQHSIAQPPQIPFQPQPQQIPGQQPQQIPGQQPQQIPGQQPQQIPGQQPQQIPVQQPQPQPQMGHVMLQQHQAPPAAQAPPVTEIANNQVQAVAAAPAPPQNEPGPAPVKAEEPATAELISFD

Results are given in words; binding and its absence hold for the method and conditions named. Binding seen in cells or lysates may run through a third protein. For some of these results: Binding can be weak; no strength is given. Where a sequence is shown, tags or fusion partners need not be part of it.
